In PubChem BioAssay AID1347076 (National Center for Advancing Translational Sciences (NCATS), 2019):
Among all 400,000 compounds or so, about 13,000 (3.2%) were called active. Inconclusive means that the source gave no clear call. Such entries were picked first, then a sample of the others. The call rests on the fitted dose curve; in most records, active means well fitted cell-killing curve with a large enough effect; inconclusive means small, poorly fitted or top-dose-only effect, or effect the other way; inactive means flat fitted curve, though single readings scatter. Potencies of inconclusive entries are doubtful fits and often do not repeat.
On the % scale 0 is the no-effect control and ±100 the full control effect; potency means the concentration at half of the fitted maximal effect.

Test: qHTS assay for MDR1-selective chemotherapeutics: Primary screen using the drug-selected MDR subline cells KB-V1; further: nearly all actives have a fitted effect of over 60% in size
Conditions: KB-V1 MDR cells viability, CellTiter-Glo, 72 h; activity change, negative = cytotoxicity: at 46.1 µM (top of the series)
Method in brief: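 Following 72 h at 37 degrees C with compound, KB-V1 cell viability was read by CellTiter-Glo luminescence, medium being phenol-red-free DMEM plus 10% FBS; concentration-response parameters came from normalized, curve-fitted qHTS data.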
For `O=C(Nc1ccc(Cl)c(Cl)c1)c1csc(-c2ccccc2)n1`, the Potency was inconclusive: 29.1 µM [cytotoxic, single point].
For `O=C(O)c1ccc(CN2C(=O)c3ccccc3S2(=O)=O)cc1`, the “activity change, negative = cytotoxicity” value was inactive: 0%.
With `O=C(Nc1ccc(F)cc1)c1nc[nH]c1C(=O)Nc1ccccc1[N+](=O)[O-]` the Potency was inconclusive: 16.4 µM [cytotoxic, single point].
For `COc1cccc(C2SCC(=O)N2c2cccc(C)c2)c1OC` (centres undefined), the Potency was inconclusive: 18.4 µM [cytotoxic, single point].
For `O=C(c1ccccc1C(=O)N1CCN(c2ccc(F)cc2)CC1)N1CCN(c2ccc(F)cc2)CC1`, the Potency was active: 9.2 µM.
In the case of `Cc1ccc(S(=O)(=O)N2CCCC2)cc1C(=O)NCc1ccccn1`, the “activity change, negative = cytotoxicity” value is reported as inactive: 22.6%.
In the case of `Cc1cc(C(=O)NC2CCCc3c2cnn3-c2ccc(C(C)(C)C)cc2)nn1C` (centres undefined), the Potency is reported as inconclusive: 1.16 µM [cytotoxic, full curve].
With `COc1ccccc1Nc1cc(N2CCOCC2)c2nonc2c1[N+](=O)[O-]` the Potency was inconclusive: 0.0046 µM [cytotoxic, full curve].
For `Cc1ccc(-n2c(C)cc(C(=S)N3CCOCC3)c2C)cc1C`, the Potency was inconclusive: 11.6 µM [cytotoxic, partial curve].
With `C=CCSc1nnc(NC(=O)c2nc(SCC)ncc2Cl)s1` the Potency was inconclusive: 16.4 µM [cytotoxic, partial curve].
In the case of `CCCCC[C@H](C)N1C[C@H](COCc2ccccc2)Oc2cc(N3CC[C@H](N(C)C)C3)ccc2S1(=O)=O`, the Potency is reported as active: 20.6 µM.
In the case of `COc1ccc(N2CCN(Cc3nc4scc(-c5cccs5)c4c(=O)[nH]3)CC2)cc1`, the Potency is reported as inconclusive: 11.6 µM [cytotoxic, partial curve].
In the case of `COc1cc2c(cc1OC)CN(C(=O)CCCN1C(=O)c3ccccc3C1=O)CC2`, the Potency is reported as inconclusive: 20.6 µM [cytotoxic, single point].
In the case of `O=C(O)c1c2c(nc3ccccc13)CCCC2`, the activity change, negative = cytotoxicity is reported as inconclusive: 49.6%.
In the case of `CCOC(=O)c1c([N+](=O)[O-])c(C)[nH]c(=O)c1C#N`, the “activity change, negative = cytotoxicity” value is reported as inactive: 25%.
In the case of `CCOc1ccc(C(=O)C(CN2CCOCC2)c2ccccc2)cc1` (centres undefined), the Potency is reported as inconclusive: 20.6 µM [cytotoxic, single point].
For `CCC(=O)NC(C)C(c1cccs1)N1CCOCC1` (centres undefined), the Potency was inconclusive: 3.26 µM [cytotoxic, partial curve, poor fit].
With `CN1CCN(C2Cc3ccccc3Sc3ccc(Cl)cc32)CC1` (centres undefined) the Potency was inconclusive: 9.2 µM [cytotoxic, partial curve, poor fit].
For `C=CCNC(=O)Cc1c(OC)ccc2cc(Br)ccc12`, the Potency was active: 20.6 µM.
In the case of `CC1(C)CC(=O)C=C(NCc2cccc(C(F)(F)F)c2)C1`, the Potency is reported as inconclusive: 20.6 µM [cytotoxic, partial curve, poor fit].
In the case of `COc1ccc(/C=N/Nc2nc(N3CCCC3)nc(N3CCCC3)n2)cc1`, the Potency is reported as inconclusive: 18.4 µM [cytotoxic, partial curve, poor fit].
With `COc1ccc(C2CC(=O)N(CC(=O)Nc3cccc(C)c3C)c3ccccc3S2)cc1OC` (centres undefined) the Potency was inconclusive: 16.4 µM [cytotoxic, partial curve].
In the case of `Cc1ccccc1/C(=N\S(=O)(=O)c1ccc(Br)cc1)Nc1ccccc1`, the Potency is reported as inconclusive: 13 µM [cytotoxic, partial curve].
With `CCOC(=O)c1c(C)oc2ccc(OC(=O)c3cccs3)cc12` the Potency was inconclusive: 20.6 µM [rising, single point].
For `CCOC(=O)C1CCN(C(=O)c2nn(-c3ccc(OC)cc3)c(=O)c3c2c2ccccc2n3C)CC1`, the “activity change, negative = cytotoxicity” value was inactive: -1.12%.
For `COC(=O)c1cccc(C23CC4(C2)[C@H](CN(Cc2cccnc2)[C@@H]4c2ccccc2)C3c2ccc(Cl)nc2)c1` (some centres undefined), the “activity change, negative = cytotoxicity” value was inactive: -13.5%.
For `Cc1ccc(Sc2ccc(N3CCCC(C(=O)Nc4ccc(F)cc4F)C3)nn2)cc1` (centres undefined), the “activity change, negative = cytotoxicity” value was inactive: -4.34%.
For `Cc1ccc(-c2n[nH]c(=O)c3ccccc23)cc1S(=O)(=O)NCC1CCCO1` (centres undefined), the “activity change, negative = cytotoxicity” value was inactive: -25.3%.
For `CCOCCCNC(=O)CS(=O)(=O)Cc1nc(-c2cccc(OC)c2)oc1C`, the Potency was inconclusive: 20.6 µM [cytotoxic, partial curve].
With `Cc1cc(C(=O)CSc2nc3ccc(Cl)cc3[nH]2)c(C)n1Cc1ccco1` the Potency was active: 20.6 µM.
In the case of `CC1CCN(S(=O)(=O)c2cc(C(=O)N3CCN(c4ccccc4F)CC3)n(C)c2)CC1`, the Potency is reported as inconclusive: 20.6 µM [cytotoxic, single point].
With `O=C(CCS(=O)(=O)CCN1CCOCC1)NCNC(=O)CCS(=O)(=O)CCN1CCOCC1` the “activity change, negative = cytotoxicity” value was inactive: 15.3%.
In the case of `O=C(CSc1nnc(COc2cccc3cccnc23)o1)c1ccc(F)cc1`, the “activity change, negative = cytotoxicity” value is reported as inactive: 0%.
For `CN(C)CCCNC(=S)N(CCCO)Cc1cc2cc3c(cc2[nH]c1=O)OCO3`, the Potency was inconclusive: 29.1 µM [rising, single point].
With `O=C(NC1=NCCS1)c1cc(-c2cccnc2)nc2ccccc12` the Potency was inconclusive: 9.2 µM [cytotoxic, partial curve].
With `Oc1ccc(C[C@H]2CNCCN2CCCCC2CCCCC2)cc1` the Potency was inconclusive: 20.6 µM [cytotoxic, single point].
With `CC(C)c1ccc(CN(C(=O)C2COc3ccccc3O2)C2CCS(=O)(=O)C2)cc1` (centres undefined) the Potency was inconclusive: 16.4 µM [cytotoxic, partial curve].
With `Cc1ccn2cc(-c3cccc(NC(=O)c4cccs4)c3)nc2c1` the Potency was inconclusive: 7.31 µM [cytotoxic, partial curve].
With `O=[N+]([O-])c1cc([N+](=O)[O-])c(Oc2ccc(Cl)c3cccnc23)cc1NN1CCCCC1` the Potency was inconclusive: 29.1 µM [cytotoxic, single point].
In the case of `Cc1cc(Br)cc(/C=N/NC(=O)c2ccc3c(c2)OCO3)c1O`, the “activity change, negative = cytotoxicity” value is reported as inactive: -14%.
In the case of `CCn1c(SCC(=O)N(C)CC(=O)Nc2ccc(OC)cc2)nnc1-c1ccco1`, the “activity change, negative = cytotoxicity” value is reported as inactive: -10.7%.
For `COc1ccc(OC)c(C2CC(=O)Nc3cc(OC)c(OC)c(OC)c32)c1` (centres undefined), the Potency was inconclusive: 18.4 µM [cytotoxic, partial curve, poor fit].
With `CCOC(=O)c1cc(C)sc1NC(=O)CN1CCN(C(=O)c2ccco2)CC1` the “activity change, negative = cytotoxicity” value was inactive: -21.9%.
In the case of `CCCCOCCCNC(=O)C[C@@H]1C[C@@]2(C(=O)OCC)CCCC=C2N(CCC2=CCCCC2)C1=O`, the Potency is reported as inconclusive: 8.2 µM [cytotoxic, partial curve].
